In patent US20190151294A1, “TREATMENT OF ALCOHOLISM AND DEPRESSION AND/OR DYSPHORIC MOOD USING IBUDILAST” (MEDICINOVA, INC., priority 2016, published 2019):

System: non-treatment-seeking individuals with AUD
Experiment: Phase 1b study: stress reactivity assessment (SR)
Format: in vivo, human
Settings: 50 mg BID
Text: Personal information collected at the time of admission (day 1) to the CRTC was used to generate personalized scripts of neutral and stressful conditions. Participants were asked to identify a recent stressful experience and to rate them on a 0 to 10 Likert scale, where a rating of 10 is considered to be the most stressful experience. Only stressful events rated≥8 were used in script development. Data on physical symptoms associated with the stressful and neutral events were also collected for script development.
During the study, each exposure consisted of 5-minute tape-recorded scripts recounting the recent stressful (or neutral) events in the participants' lives, including cognitions and physical feelings. […]
The following measures of mood, urge to drink, and physiological reactivity were administered at baseline and post-imagery for both the stress and neutral conditions: (1) The Profile of Mood States, Short Version (POMS) collected data on (a) positive and negative mood; (2) The Alcohol Urge Questionnaire (AUQ) measured subjective levels of alcohol cravings at the present moment (i.e., following stress imagery); (3) Cortisol levels were assessed by collecting saliva samples and heart rate and blood pressure were measured using a Dynamap Adult Vital Signs Monitor. […]

## CC(C)C(=O)c1c(C(C)C)nn2ccccc12 [ibudilast, Ibudilast]
p=0.07, FIG. 7
  cortisol level vs. placebo: modest increase
Saliva samples
  cortisol reactivity to the stressor: did not affect
